At least one compound was matched to its structure with a doubt left.
Test system: mouse embryonic fibroblasts (MEFs)
Experiment: Mitophagy in MEFs (LTG/MTR live cell imaging, LC3B lipidation)
Assay type: cell-based

## O=[Se](O)O [Sodium selenite, sodium selenite]
CerS1^top/top-MEFs
  mitophagy (co-localization of LTG and MTR, LC3B lipidation): not in CerS1^top/top-MEFs
WT-MEFs
  mitophagy (co-localization of LTG and MTR, LC3B lipidation): markedly induced mitophagy
